Test results from PubChem BioAssay AID445 (National Center for Advancing Translational Sciences (NCATS), 2006).
This is one part of the list. These are further read-outs of the screen, such as a control signal, another cell line or another target. No call is given for them. Compounds called inactive in the main read-out are mostly missing here. Words in brackets tell the shape of the fitted curve; partial curves, single points and poor fits give uncertain potencies.

Assay: IkB Signaling
Details: ABC-DLBCL IkBa-CBG/CBR dual luciferase ratio (green luciferase fused to IkBa over red control in OCI-Ly3 lymphoma cells), 4 h; measured here: control luc red channel unless noted
In short: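 Luminescence ratio of IκBα-fused green versus native red beetle luciferase in OCI-Ly3 cells, 4 h post-doxycycline with compound; red signal alone, scaled from basal (0%) to zero light (-100%), flagged nonspecific or cytotoxic effects.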

| Compound | AC50 |
| --- | --- |
| CCOC(=O)c1c(C)oc2ncnc(NCCCN3CCN(c4cc(C)ccc4C)CC3)c12 | 15.8 µM [falling, partial curve] |
| CCCN(CCC)C(=O)Cn1c(=O)n(-c2ccc(C)cc2)c(=O)c2ccc(C(=O)NCc3ccccc3Cl)cc21 | 6.31 µM [falling, partial curve] |
| CNC(=O)C1CCN(Cc2cc3ccccc3n2Cc2ccccc2C)CC1 | 10 µM [falling, partial curve, poor fit] |
| Cc1ccc(-c2cn3c(n2)sc2cc(C(=O)NCc4cccs4)ccc23)cc1 | 25.1 µM [falling, partial curve] |
| CCC1CN(C(=O)N2CCC(C(=O)NCCc3ccc(C)cc3)CC2)c2ccccc2O1 (stereo not drawn) | 0.631 µM [rising, full curve, poor fit] |
| Cc1oc(-c2ccccc2)nc1CSc1nnc(C)n2c1cc1sccc12 | 39.8 µM [falling, single point] |
| CCOCCCNC(=O)CCC(=O)NNc1nc2ccccc2c2nc(-c3ccccc3)nn12 | 15.8 µM [falling, single point] |
| O=C(NCc1cccc(Br)c1)C1CCN(C(=O)c2sccc2-n2cccc2)CC1 | 15.8 µM [falling, partial curve] |
| O=C(CCc1nnc2n(Cc3ccccc3Cl)c(=O)c3ccccc3n12)Nc1ccc(F)c(F)c1 | 15.8 µM [falling, single point] |
| Cc1ccc(O)c(NC(=O)c2noc3c2CCCCC3)c1 | 1.58 µM [rising, partial curve] |
| CC(=O)N1c2ccccc2CC1C(=O)N1CCN(c2cccc(Cl)c2)CC1 (stereo not drawn) | 12.6 µM [falling, partial curve] |
| O=C(CC1C(=O)N(c2ccc(F)cc2)C(=O)N1Cc1ccc2c(c1)OCO2)Nc1ccc(F)cc1 (stereo not drawn) | 15.8 µM [falling, single point] |
| Nc1c(-c2nc(-c3cccs3)no2)nnn1-c1cccc(F)c1 | 0.316 µM [rising, full curve] |
| CCOC(=O)c1cnc2c(C)cccc2c1NCCc1ccc(OC)c(OC)c1 | 12.6 µM [falling, partial curve] |
| Cc1ccc(C)c(CN2C(=O)c3ccccc3S(=O)(=O)c3ccc(C(=O)N4CCCC4)cc32)c1 | 31.6 µM [falling, single point] |
| CCN(c1ncnc2c1cnn2-c1cc(Cl)ccc1C)C1CCCCC1 | 31.6 µM [falling, single point] |
| O=C(CN1C(=O)COc2ccc(S(=O)(=O)N3CCOCC3)cc21)N1CCN(c2cccc(C(F)(F)F)c2)CC1 | 31.6 µM [falling, single point] |
| COc1cc(C2c3c(-c4c(C)cc(C)cc4O)n[nH]c3C(=O)N2CCO)cc(OC)c1OC (stereo not drawn) | 0.2 µM [rising, full curve] |
| COc1ccc(OC)c(CNC(=O)c2cc3cc4ccc(OC)cc4nc3o2)c1 | 39.8 µM [rising, single point] |
| COC(=O)[C@@H](N)Cc1ccc(O)c(O)c1 | 10 µM [rising, full curve, poor fit] [measured here: IkB-luc green channel] |
| CCCn1cnc2cc(NCc3ccccn3)ccc21 | 1.26 µM [falling, partial curve] |

| Compound | AC50 |
| --- | --- |
| Cc1ccccc1-c1nnc(CN2CCN(c3cccc(C)c3C)CC2)o1 | 31.6 µM [falling, partial curve] |
| COc1cccc(NC(=O)CSc2nc3c([nH]c4ccccc43)c(=O)n2-c2ccccc2)c1 | 39.8 µM [falling, single point] |
| CCCN1C(=O)c2[nH]nc(-c3ccccc3O)c2C1c1cccc(OCc2ccccc2)c1 (stereo not drawn) | 15.8 µM [falling, partial curve] |
| COCCNC(=O)C(=O)NCC(c1cccnc1)N1CCN(c2ccccc2OC)CC1 (stereo not drawn) | 15.8 µM [falling, partial curve] |
| CC(C)(C)NC(=O)c1cnn(-c2ccccc2)c1C1CCN(C(=O)OC(C)(C)C)CC1 | 15.8 µM [falling, single point] |
| O=C(CCCc1nc2ccccc2s1)Nc1nccs1 | 25.1 µM [falling, single point] |
| O=C(NCc1ccccc1Cl)c1cc2c(s1)-c1ccccc1SC2 | 5.01 µM [falling, partial curve] |
| Cc1ccc(CSc2ccc(-c3cccs3)nn2)cc1 | 5.01 µM [rising, partial curve] |
| COc1ccc(S(=O)(=O)n2cnc3cc(C)c(C)cc32)cc1C | 12.6 µM [falling, partial curve] |
| Cc1cc(OCC(=O)Nc2cc(-c3nc4ccccc4[nH]3)ccc2C)ccc1Cl | 10 µM [falling, partial curve] |
| COc1cccc(NC(=O)CSc2nnc(-c3cc(C)n(-c4ccccc4)c3C)o2)c1 | 7.94 µM [falling, partial curve] |
| Cc1ccccc1C(=O)Nc1nnc(SCc2cc(=O)n3ccccc3n2)s1 | 6.31 µM [falling, partial curve] |
| CCCCC(c1nnnn1Cc1ccco1)N1CCN(c2nc3ccccc3s2)CC1 (stereo not drawn) | 12.6 µM [falling, partial curve] |
| CCCCC(CC)CNC(=O)c1ccc2c(=O)n(CCOC)c(=O)[nH]c2c1 (stereo not drawn) | 2 µM [falling, full curve] |
| COc1ccc(NC(=O)C2CCN(c3cc(C)nc(-c4ccccc4)n3)CC2)cc1 | 12.6 µM [falling, partial curve] |
| CC(=O)c1cccc(S(=O)(=O)N2CCN(c3ccccc3F)CC2)c1 | 15.8 µM [falling, single point] |
| O=C(COc1cccc2cccnc12)Nc1nccs1 | 3.16 µM [falling, full curve] |
| Cc1ccc(CN2CCC(CNC(=O)c3cc4ccc5cccnc5c4[nH]3)CC2)cc1 | 20 µM [falling, single point] |
| CCOc1cc2sc(N3CCC(C(=O)Nc4ccccc4Cl)CC3)nc2cc1Br | 2 µM [falling, full curve] |
| Cc1ccc(-c2nn(CC(=O)NC3CCCC3)c3c2cnc2ccc(F)cc23)cc1C | 2 µM [rising, full curve, poor fit] |
| Cc1cc(S(=O)(=O)C(CNC(=O)COc2ccccc2)c2cccs2)ccc1F (stereo not drawn) | 39.8 µM [falling, single point] |

Of the compounds above, 2 contain bromine:

| Compound | AC50 |
| --- | --- |
| O=C(NCc1cccc(Br)c1)C1CCN(C(=O)c2sccc2-n2cccc2)CC1 | 15.8 µM [falling, partial curve] |
| CCOc1cc2sc(N3CCC(C(=O)Nc4ccccc4Cl)CC3)nc2cc1Br | 2 µM [falling, full curve] |

Look-ups from above.
Value of O=C(NCc1cccc(Br)c1)C1CCN(C(=O)c2sccc2-n2cccc2)CC1 under AC50: 15.8 µM [falling, partial curve]
Value of COc1ccc(S(=O)(=O)n2cnc3cc(C)c(C)cc32)cc1C under AC50: 12.6 µM [falling, partial curve]

Continuation:

| Compound | AC50 |
| --- | --- |
| CCN(CC)C(=O)COc1ccc(-c2nnc(N3CCCCC3)c3ccccc23)cc1 | 15.8 µM [falling, partial curve] |
| COc1ccccc1Cn1cc(C(=O)c2ccc(Cl)cc2)c(=O)c2cc3c(cc21)OCCO3 | 10 µM [falling, partial curve] |
| CCCCOC(=O)c1ccc(NC(=O)c2ccc3c(c2)CCN3S(=O)(=O)c2ccccc2)cc1 | 3.98 µM [rising, single point] |
| O=C(Nc1ccc(F)cc1F)c1ccc(-c2ccccc2)s1 | 0.126 µM [falling, full curve] |
| Cc1ccc2nc(CSc3nnc(NC(=O)COc4ccccc4F)s3)cc(=O)n2c1 | 25.1 µM [falling, partial curve, poor fit] |
| COc1ccc(C)cc1N(CC(=O)N1CCC(C)CC1)S(=O)(=O)c1ccc(C)cc1 | 25.1 µM [falling, single point] |
| Cn1c(=O)c2c(-c3ccccc3Br)n(C(C)(C)C)cc2n(C)c1=O | 31.6 µM [falling, single point] |
| O=C(NC1CCCCC1)c1cc(-c2ccco2)on1 | 0.631 µM [falling, full curve] |
| COc1ccc(-n2c(CCC(=O)O)ccc2-c2ccccc2)cc1 | 5.01 µM [falling, partial curve] |
| CCC(=O)N1CCc2cc(Br)cc(S(=O)(=O)N3CCCC(C(=O)Nc4ccc(CC)cc4)C3)c21 (stereo not drawn) | 6.31 µM [falling, full curve, poor fit] |
| CCOC(=O)c1cccc(NC(=O)Cc2ccc(NC(=O)N3CCCCc4ccccc43)cc2)c1 | 15.8 µM [falling, single point] |
| COc1ccc(NS(=O)(=O)c2ccc(SC)cc2)cc1 | 12.6 µM [falling, partial curve] |
| CCOC(=O)c1c(C)[nH]c(C)c1S(=O)(=O)N1CCCC(C(=O)N2CCN(c3ccc(Cl)cc3)CC2)C1 (stereo not drawn) | 25.1 µM [falling, single point] |
| O=C(Nc1ccccc1C(=O)OCc1cc(=O)n2c3c(sc2n1)CCCC3)c1ccc(Cl)cc1 | 3.98 µM [falling, partial curve] |
| Cc1nnc(N2CCN(c3ccccc3)CC2)c2c1nnn2Cc1ccc(F)cc1 | 3.98 µM [falling, partial curve] |
| CCOC(=O)c1[nH]c(C)c(CCC(=O)N2CCN(c3cc(Cl)ccc3C)CC2)c1C | 31.6 µM [falling, single point] |
| Cc1cc2c(cc1S(=O)(=O)CCC(=O)NCc1ccccc1)OCC(=O)N2 | 10 µM [falling, partial curve] |
| CCN(CC)c1ccc(NC(=O)C(NS(=O)(=O)c2cccs2)C(C)C)c(C)c1 (stereo not drawn) | 31.6 µM [falling, single point] |
| CCn1nc(-c2ccccc2)c(-c2ccccc2)c(C(=O)Nc2ccccc2C(N)=O)c1=O | 31.6 µM [falling, single point] |
| Cc1cc(C)cc(NC(=O)CSCc2cc(=O)c3cc(Cl)ccc3[nH]2)c1 | 31.6 µM [falling, single point] |
| CC1(C)CC(=O)c2cc(-c3nc(-c4ccc(Br)cc4)cs3)c(=O)n(-c3ccccc3)c2C1 | 6.31 µM [falling, single point] |

2 successive compounds from above, for reference:

| Compound | AC50 |
| --- | --- |
| COc1ccc(NC(=O)C2CCN(c3cc(C)nc(-c4ccccc4)n3)CC2)cc1 | 12.6 µM [falling, partial curve] |
| CC(=O)c1cccc(S(=O)(=O)N2CCN(c3ccccc3F)CC2)c1 | 15.8 µM [falling, single point] |
